From the supplement of paper PMC5407854, “Inhibitor of ppGalNAc-T3-mediated O-glycosylation blocks cancer cell invasiveness and lowers FGF23 levels” (eLife, 2017) come the findings set out here.

The other results are listed elsewhere or left out. Most entries show no effect beyond the scatter of the controls.

In one assay the test system is ppGalNAc-T3 sensor. In words: T3 sensor activation Q score (MG/GFP ratio z-score vs DMSO controls) (SD units); higher = more sensor activation (inhibition of ppGalNAc-T3 glycosylation). The following applies: HEK293 sensor cells; 10 µM; 6 h. The protocol:
(§1)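 Cells were treated with compound at 10 uM for 6 h, then MG/GFP ratio was read by flow cytometry (10,000 cells per well, duplicate wells). Q = (R - R_neg)/SD_neg relative to DMSO vehicle controls; the signal rises when the glycosyltransferase is inhibited.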

Another assay relates to ppGalNAc-T2 sensor. Put plainly: T2 sensor activation Q score (MG/GFP ratio z-score vs DMSO controls) (SD units); higher = more sensor activation (inhibition of ppGalNAc-T2 glycosylation). The following applies: HEK293 sensor cells; 10 µM; 6 h. The protocol: as §1

Turning to `CCCNC(=O)c1ccc(C(=O)NCCC)cc1`, the “T3 sensor activation Q score” value in the assay on ppGalNAc-T3 sensor was 1.2. In addition, in the assay with ppGalNAc-T2 sensor, the “T2 sensor activation Q score” value is -0.49.
The like results for `Cc1ccc(NC(=O)C23CC4CC(CC(C4)C2)C3)cc1[N+](=O)[O-]` were, in that order, -0.51 and -0.87.
The like results for `C=CCN1C(=O)C(=O)C(=C(O)c2ccccc2)C1c1ccccc1` (stereo not drawn) were, in that order, 0.485 and -0.52.
Take `O=C(c1ccccc1)N1CCOCC1`: in the assay on ppGalNAc-T3 sensor, the “T3 sensor activation Q score” value is -0.39. Further, in the assay with ppGalNAc-T2 sensor, the “T2 sensor activation Q score” value was -0.62.
The like results for `Cc1cc(C)c(C)c(OCCCCN2CCOCC2)c1` were, in that order, -0.24 and -0.25.
The matching figures for `CN(C)CCN(C)Cc1ccccc1F`: -0.455 and 0.78.
`CCN(CCN(C)C)Cc1ccc(Cl)c(Cl)c1`: the “T3 sensor activation Q score” value in the assay on ppGalNAc-T3 sensor is 0.61. The “T2 sensor activation Q score” value in the assay on ppGalNAc-T2 sensor came to 0.415.
The like results for `CC1C(C(=O)O)CC(C(=O)O)C1(C)C` (stereo not drawn) were, in that order, 0 and 0.96.
The matching figures for `COc1ccc(C2C(=C(O)c3ccccc3)C(=O)C(=O)N2C)cc1` (stereo not drawn): 0.28 and 0.125.
With `CN1CCN(C2CC(=O)N(c3ccc(F)cc3)C2=O)CC1` (stereo not drawn), the “T3 sensor activation Q score” value in the assay with ppGalNAc-T3 sensor was -0.035. Moreover, the “T2 sensor activation Q score” value in the assay with ppGalNAc-T2 sensor was -0.49.
The like results for `CCOc1ccccc1NC(=O)Nc1ccc(Cl)cc1` were, in that order, 0.525 and 0.515.
The like results for `O=C(O)C1CCCCC1C(=O)Nc1ccc(Cl)cc1` (stereo not drawn) were, in that order, -0.53 and 0.185.
The matching figures for `COc1c2ccoc2nc2c(OC)cccc12`: 0.06 and 0.155.
On to `COc1ccc(C(=O)N2CCCCCC2)cc1OC`, for which, in the assay on ppGalNAc-T3 sensor, the “T3 sensor activation Q score” value came to 0.275. In addition, the “T2 sensor activation Q score” value in the assay with ppGalNAc-T2 sensor is -0.9.
The like results for `CCCNC1=C(N2CCCCC2)C(=O)c2ccccc2C1=O` were, in that order, 0.095 and 0.255.
`NC(=O)c1ccc(-n2nnnc2SCc2ccc(Cl)cc2)cc1`: the “T3 sensor activation Q score” value in the assay with ppGalNAc-T3 sensor is -0.65. In addition, the “T2 sensor activation Q score” value in the assay on ppGalNAc-T2 sensor was -1.02.
On to `CC(C)CNC(=O)c1ccc(Br)o1`, for which the “T3 sensor activation Q score” value in the assay on ppGalNAc-T3 sensor was -0.09. Also, the “T2 sensor activation Q score” value in the assay on ppGalNAc-T2 sensor turned out to be 0.94.
The like results for `O=C(O)CNC(=O)c1ccccc1Cl` were, in that order, 0.11 and -0.125.
The matching figures for `Cc1ccccc1OCCCN1CCCCC1`: 0.32 and -0.52.
Regarding `CCOC(=O)N1CCN(Cc2cccc(Cl)c2Cl)CC1`, the “T3 sensor activation Q score” value with ppGalNAc-T3 sensor is -0.03. The “T2 sensor activation Q score” value in the assay with ppGalNAc-T2 sensor stood at 0.26.
`O=C(C1CCCCC1)N1CC(=O)N(CCc2ccccc2)C(=O)C1`: the “T3 sensor activation Q score” value with ppGalNAc-T3 sensor is 1.15. Further, the “T2 sensor activation Q score” value with ppGalNAc-T2 sensor is 0.275.
The like results for `CCN(CC)C(=O)C1CCCN(Cc2cc(Br)ccc2OC)C1` (stereo not drawn) were, in that order, 0.215 and 1.52.
The matching figures for `O=C(O)CCC(=O)Nc1ccc(Br)c(Cl)c1`: -0.045 and -0.025.
The matching figures for `CC(=O)N(C1=C(N(C)C)C(=O)c2ccccc2C1=O)c1cccc(Cl)c1`: -0.525 and 0.21.
Turning to `NC(=O)c1ccccc1-c1ccccc1C(=O)O`, in the assay on ppGalNAc-T3 sensor, the “T3 sensor activation Q score” value is -0.14. In addition, the “T2 sensor activation Q score” value with ppGalNAc-T2 sensor is -1.44.
The matching figures for `O=C(COc1ccc(Cl)cc1)Nc1ccc(Br)cc1`: 0.245 and 0.785.
The matching figures for `CCOc1ccc(NC(=O)Nc2ccc(Cl)cc2)cc1`: 0.965 and 0.505.
The matching figures for `Fc1cccc(CN2CCc3c([nH]c4ccccc34)C2)c1`: 0.11 and -0.875.
For `CCN(C(=O)CCc1ccccc1)c1ccccc1`, the “T3 sensor activation Q score” value in the assay on ppGalNAc-T3 sensor is -1.19. In addition, the “T2 sensor activation Q score” value in the assay on ppGalNAc-T2 sensor is -0.245.
